Test results: PMC10694292, “Increased sinusoidal export of drug glucuronides is a compensative mechanism in liver cirrhosis of mice” (Frontiers in Pharmacology, 2023)
Where two headings read alike, the source gives them in different places.

Key:
[1] = human, cited from earlier work
[2] = Drug cocktail i.v. in CCl4-cirrhotic and control mice: plasma concentrations and AUC; details: 15-120 min after cocktail; prediction with CYP activity at 11%
[3] = isolated perfused rat liver; ref Evans et al., 1999; cited from earlier work

Row | SMILES | Fraction unbound ([1]; experimental, ref Vree and Verwey-van Wissen) | Fraction unbound ([1]; albumin, ref Edginton et al., 2006) | Measured plasma concentrations in cirrhotic mice vs PBPK-predicted concentrations [2] | Fraction formed in the hepatocytes excreted to bile [3] | Fraction unbound ([1]; DrugBank, ref Wishart et al., 2017)
1 | CN1CC[C@]23c4c5ccc(O)c4O[C@H]2[C@@H](O)C=C[C@H]3[C@H]1C5 [Morphine, morphine] | 0.535 | 0.75 |  |  | 
2 | CN1CC[C@]23c4c5ccc(O[C@@H]6O[C@H](C(=O)O)[C@@H](O)[C@H](O)[C@H]6O)c4O[C@H]2[C@@H](O)C=C[C@H]3[C@H]1C5 [M3G, morphine-3-glucuronide] |  |  | much higher | 0.3-0.5 | 0.9
